Results deposited as PubChem BioAssay AID1259254 (NCATS, 2017).

Screen: 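Gene knock-downs that lead to re-replication, shown by excess G2 DNA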 (primary screen)
Cells: human HCT116 colorectal cancer cells
Reagents: single siRNA against human genes
Timing: 3 days
Read-out: 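Imaged Hoechst DNA stain sorts each cell into a cycle phase by DNA amount; per plate, G2 fraction set to 0% for non-targeting and 100% for GMNN siRNA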
Direction: G2 robust z-score: higher = more G2 cells, more excess DNA replication
Call rule: 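An siRNA counts as active if its G2 robust z-score lies at least 5 MADs above the screen median; here such calls match roughly 38% of GMNN control or more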
Shown is a random part of about 59,000 reagents. About 1,550 of them (2.6%) count as active. 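G2 share is only a proxy for re-replication; each gene was hit by three separate siRNAs, and active genes were retested.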 Not all columns of the deposit are shown. Not given: the amount of reagent.

After knock-down of RPL23AP82 (ribosomal protein L23a pseudogene 82) [SID160763449], the screen gave G2 robust z-score 1.44; inactive.
RPL23AP82 (ribosomal protein L23a pseudogene 82) [SID160763450] gave G2 robust z-score 3.84; inactive.
For RPL23AP82 (ribosomal protein L23a pseudogene 82) [SID160763451], the values are G2 robust z-score -0.0547; inactive.
SRPK3 (SRSF protein kinase 3) [SID160738090] gave G2 robust z-score 0.00432; inactive.
SRPK3 (SRSF protein kinase 3) [SID160738091] gave G2 robust z-score 0.0912; inactive.
For SRPK3 (SRSF protein kinase 3) [SID160738092] the deposit lists G2 robust z-score -0.736; inactive.
After knock-down of HHATL (hedgehog acyltransferase like) [SID160746029] the results were G2 robust z-score -0.694; inactive.
Silencing of HHATL (hedgehog acyltransferase like) [SID160746030] gave: G2 robust z-score -1.36; inactive.
Silencing of HHATL (hedgehog acyltransferase like) [SID160746031] resulted in: G2 robust z-score 0.042; inactive.
For SYNE3 (spectrin repeat containing nuclear envelope family member 3) [SID160759823], the entry reads G2 robust z-score -0.356; inactive.
After knock-down of SYNE3 (spectrin repeat containing nuclear envelope family member 3) [SID160759824] the results were G2 robust z-score 1.15; inactive.
After knock-down of SYNE3 (spectrin repeat containing nuclear envelope family member 3) [SID160759825], the screen gave G2 robust z-score -0.583; inactive.
